This is an account of results in paper PMC5108325.

Sequences of proteins named here, by UniProt entry; tags and fusion partners are left off. A change or cut given only in a name is not applied to a line headed by its entry.
UniProt P23258: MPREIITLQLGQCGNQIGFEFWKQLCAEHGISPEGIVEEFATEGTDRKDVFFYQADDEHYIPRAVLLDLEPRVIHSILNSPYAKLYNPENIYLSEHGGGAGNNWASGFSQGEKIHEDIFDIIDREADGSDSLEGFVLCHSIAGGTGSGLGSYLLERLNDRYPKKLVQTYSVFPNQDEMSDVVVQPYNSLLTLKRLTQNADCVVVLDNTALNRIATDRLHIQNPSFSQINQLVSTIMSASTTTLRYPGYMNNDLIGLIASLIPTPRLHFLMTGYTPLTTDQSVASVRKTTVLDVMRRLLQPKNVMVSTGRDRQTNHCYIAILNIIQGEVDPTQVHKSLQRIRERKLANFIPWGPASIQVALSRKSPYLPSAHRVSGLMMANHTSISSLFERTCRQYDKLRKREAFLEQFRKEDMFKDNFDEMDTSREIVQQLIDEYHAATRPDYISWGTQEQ

Assay [1] has as its target T1, tandem affinity purification (TAP)-tagged BEX4 (HeLa) (human) (UniProt Q9NWD9).
T1 sequence: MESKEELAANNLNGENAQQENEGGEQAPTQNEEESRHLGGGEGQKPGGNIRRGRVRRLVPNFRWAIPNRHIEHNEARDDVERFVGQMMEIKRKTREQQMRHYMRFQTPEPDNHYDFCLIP
Nature of the assay: pull-down; lysates of HeLa cells expressing TAP-BEX4 or TAP alone incubated with streptavidin sepharose beads; bound proteins immunoblotted.

The target in assay [2] is T2, BEX4 (endogenous, HeLa) (human (endogenous in HeLa)) (UniProt Q9NWD9).
T2 sequence: T1 sequence
The assay is described as follows: co-IP; HeLa cell lysates immunoprecipitated with anti-BEX4 antibody and immunoblotted. For orientation: Immunoblotting shows a protein as a band on a membrane.

A further assay has as its target T3, GST-SIRT2 wild type (WT) (UniProt Q8IXJ6).
T3 sequence: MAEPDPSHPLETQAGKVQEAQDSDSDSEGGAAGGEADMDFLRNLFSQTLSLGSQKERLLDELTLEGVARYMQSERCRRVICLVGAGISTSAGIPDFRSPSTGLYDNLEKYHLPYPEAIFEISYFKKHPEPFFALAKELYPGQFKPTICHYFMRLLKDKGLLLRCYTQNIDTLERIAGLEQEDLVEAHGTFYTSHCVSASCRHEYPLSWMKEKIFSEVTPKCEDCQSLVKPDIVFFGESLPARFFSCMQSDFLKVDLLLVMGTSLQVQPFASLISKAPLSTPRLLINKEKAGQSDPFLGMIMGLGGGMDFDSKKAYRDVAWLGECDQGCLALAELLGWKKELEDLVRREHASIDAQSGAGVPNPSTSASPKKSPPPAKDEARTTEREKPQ
The assay is described as follows: pull-down; purified GST, GST-SIRT2 (WT) or GST-SIRT2 H187Y incubated with U2OS cell extracts and pulled down with beads; bound proteins immunoblotted; only the target purified.

The next assay has as its target T4, GST-SIRT2 H187Y mutant (UniProt Q8IXJ6).
T4 sequence: T3 sequence with H187Y
The description is as above.

In assay [3] the target is T5, GST-BEX4 middle (M; 31~90 a.a) (human) (UniProt Q9NWD9).
T5 sequence: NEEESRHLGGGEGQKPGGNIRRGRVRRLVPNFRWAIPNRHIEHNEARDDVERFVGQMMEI
Nature of the assay: pull-down; U2OS cell extracts incubated with beads bound to GST, GST-BEX4 (FL) or GST-BEX4 N, M, C; bound proteins immunoblotted; only the target purified.

Assay [4] concerns the target T6, GST-BEX4 C-terminal (C; 61 ~120 a.a) (human) (UniProt Q9NWD9).
T6 sequence: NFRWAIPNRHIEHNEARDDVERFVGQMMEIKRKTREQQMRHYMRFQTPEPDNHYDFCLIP
The description is as above.

Where a chain is given by its changes, count along the chain named. These are yes or no findings as the source states them, for the method shown. Binding seen in cells or lysates may run through a third protein. Binding calls can cover weak binding; strength is not graded here. For some assays here: Sequences can lack the tags named with a protein.

As to “β-tubulin (endogenous, HeLa) (human (endogenous in HeLa))”, the binding result in assay [1] was “binds weakly”.
For the substance “γ-tubulin (endogenous, HeLa) (from UniProt P23258)”, in assay [1], the binding result is on record as “binds weakly”.
“α-tubulin (endogenous, HeLa) (human (endogenous in HeLa))”: the binding entry in assay [1] and in assay [2] was “binds” each time.
As for “α-tubulin (endogenous, U2OS) (human (endogenous in U2OS))”, the binding result in the assay with GST-SIRT2 wild type (WT) was “binds”; with GST-SIRT2 H187Y mutant it was “binds”; in assay [3] it was “binds weakly”; in assay [4] it was “binds”.
